# Reference: article PMC12040169 (PLOS Biology, 2025)
# The list shows a part of the results.
# Test system: T1, CTL2-GFP (C. trachomatis L2/434/Bu, GFP-expressing)
# T1 construct: L2/434/Bu, GFP-expressing
# Set-up: species or system HeLa; Intracellular C. trachomatis growth in HeLa cells, bulk GFP fluorescence relative to DMSO
# Details: bulk GFP, single well; 28.5 h, 10 µM; inhibitor
row,SMILES,% of control remaining [%]
1,CN(C)CCNCc1ccccc1OC1CCCC1 [CBK278214C],201.219
2,Fc1cc(Br)ccc1-c1cn(-c2ccc(Oc3ccccc3)cc2)nn1 [CBK113145],146.747
3,O=C(CCCC(=O)N1CCCC1)N1CCCC1 [CBK006992],81.7179
4,CN(C)C(=O)CN1CCN(C(=O)c2ccccc2C(=O)c2ccc(F)cc2)CC1 [CBK297921],141.229
5,OC(c1cccs1)C1CCN(Cc2ccc(Cn3cccn3)cc2)CC1 (stereo not shown) [CBK307454],105.388
6,NC(=O)C1(N2CCCCC2)CCN(CC(=O)Nc2ccc(Br)cc2)CC1 [CBK268364],149.26
7,CC1(C)CN=C(N2CCN(C3=NCC(C)(C)S3)CC2)S1 [CBK020461],119.08
8,O=C(O)CCCC(=O)Nc1ccc(O)cc1 [CBK263567],100
9,O=C(O)c1cc(C(=O)O)cc(N2C(=O)c3ccc(S(=O)(=O)c4ccc5c(c4)C(=O)N(c4cc(C(=O)O)cc(C(=O)O)c4)C5=O)cc3C2=O)c1 [CBK261336],100
10,O=S(=O)(Nc1ccc2c(ccn2Cc2ccccc2)c1)c1ccc(S(=O)(=O)c2ccccc2)s1 [CBK159533],108.769
11,CS(=O)(=O)NC1c2cccc3cccc(c23)C1N1CCOCC1 (stereo not shown) [CBK265845],193.996
12,O=C(NCCCn1ccnc1)c1cccc(S(=O)(=O)N2CCCCC2)c1 [CBK304687],109.292
13,COc1cccc2cc(C(=O)NC3CC3)oc12 [CBK149813],119.21
14,CSc1ccc(CN(C)CCN(C)C)cc1 [CBK019349],112.266
15,O=C(O)c1ccc(Cl)c2c1C1C=CCC1C(c1ccc(S(=O)(=O)N3CCOCC3)cc1)N2 (stereo not shown) [CBK268401],134.456
16,Cc1ccc(CNC(=O)C2CC(=O)N(c3cccc(C)c3C)C2)cc1 (stereo not shown) [CBK295183],127.705
17,O=C(O)CCNC(=O)c1ccc(C#CC2(O)CCCCC2)cc1 [CBK286554],112.638
18,C[C@H]1CN2C[C@H](O)CC2CN1Cc1cccc2ccccc12 (stereo partly shown) [CBK284717],114.504
19,CC(C)c1ccccc1NC(=O)NCCc1cccs1 [CBK043938],121.352
20,NC(=O)c1ccccc1OCCO [CBK000640],114.312

row,SMILES,% of control remaining [%]
1,CCOC(=O)c1c(-c2ccc(OC)cc2)noc1C(O)c1ccccc1 (stereo not shown) [CBK002296],127.048
2,COc1cc(NC(=O)CC2NC3CCCCC3NC2=O)cc(OC)c1 (stereo not shown) [CBK266597],150.568
3,Cc1ccc2ccc(S(=O)(=O)NCc3cccnc3)cc2c1 [CBK262072],97.3823
4,c1csc(-c2nccnc2NCCc2ccncc2)c1 [CBK036764],100.038
5,c1ccc(CCN2CCC(Oc3cncc(OCC4COc5ccccc5O4)n3)C2)cc1 (stereo not shown) [CBK084382],106.45
6,COc1ncccc1C(NC(=O)C1CCN(C(=O)OCc2ccccc2)CC1)c1ccccc1C (stereo not shown) [CBK076802],150.676
7,Cc1cc(C(F)(F)F)n2nc(C3CCCN3C(=O)C(C)C)cc2n1 (stereo not shown) [CBK284685],113.63
8,OCc1ccc(-c2nccnc2N2CCCC2CO)cc1 (stereo not shown) [CBK089053],126.922
9,COc1ccnc(N2CCCN(CCCC#N)CC2)n1 [CBK084124],157.331
10,CC(NC(=O)N(CCCN)Cc1ccccc1C(F)(F)F)c1ccccc1 (stereo not shown) [CBK034668C],122.051
11,O=C(c1cc2ncc(CCO)cn2n1)N1CCC(c2ccccc2Cl)C1 (stereo not shown) [CBK307266],111.363
12,COc1cccc(CNc2ccc(S(N)(=O)=O)cc2)c1OCc1ccccc1F [CBK267906],92.1021
13,CC(C)[C@H]1NC(=O)[C@@H]2[C@@H](NC(=O)NC3CCCCC3)CCN2C1=O [CBK289264],109.138
14,CCCc1cc(C(=O)N2CCCC(COc3cccc(F)c3)C2)[nH]n1 (stereo not shown) [CBK306776],95.0114
15,Cc1cccc(CN2CCC3(CCc4ccccc4C(=O)N3)C2)n1 (stereo not shown) [CBK284619],120.889
16,Cc1nnc(Sc2ncccc2C(F)(F)F)s1 [CBK115211],100
17,COc1ccc2[nH]c(C(=O)O)c(CCC(=O)O)c2c1 [CBK266582],92.4287
18,CCn1c(=N)n(CC(=O)O)c2ccccc21 [CBK262906B],100
19,Nc1nc(-c2ccc(F)cc2)c2c(n1)-c1ccccc1C2=O [CBK287881],78.7264
20,N#Cc1ccc(Cn2cc(C(=O)C(N)=O)c3ccccc32)cc1 [CBK270062],147.859

# Entries from the list above with an NH in an aromatic ring (2):
row,SMILES,% of control remaining [%]
14,CCCc1cc(C(=O)N2CCCC(COc3cccc(F)c3)C2)[nH]n1 (stereo not shown) [CBK306776],95.0114
17,COc1ccc2[nH]c(C(=O)O)c(CCC(=O)O)c2c1 [CBK266582],92.4287
